Experimental data: PubChem BioAssay AID1259425 (University of Nebraska Medical Center, 2018)
Test: 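Compare each knockdown with KSR1 silencing using changes in marker transcripts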 (primary screen). System: HCT116 human colon cancer cells. Reagents: siRNA pool against human genes, 50 nM siRNA. Measured: 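mRNA of six signature genes measured together by branched-DNA assay after 50 nM siRNA pool, blank removed, divided by geometric mean of two housekeeping genes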. Scale: BNIP3L mRNA: higher = more BNIP3L transcript after knockdown; NDRG1 mRNA: higher = more NDRG1 transcript after knockdown; BNIP3 mRNA: higher = more BNIP3 transcript after knockdown.
Shown is a random part of about 14,000 reagents tested. Further read-outs or replicates are left out here. No sequences are given here. Not given: the time to read-out.

| gene knocked down | BNIP3L mRNA, set 1 | NDRG1 mRNA, set 1 | BNIP3 mRNA, set 1 |
| --- | --- | --- | --- |
| KLK11 (GeneID 11012) | 0.231 | 0.222 | 0.402 |
| MRPL14 (GeneID 64928) | 0.123 | 0.156 | 0.271 |
| STATH (GeneID 6779) | 0.121 | 0.29 | 0.313 |
| SPTA1 (GeneID 6708) | 0.116 | 0.199 | 0.225 |
| DCTPP1 (GeneID 79077) | 0.118 | 0.309 | 0.262 |
| KEL (GeneID 3792) | 0.173 | 0.152 | 0.311 |
| INTS10 (GeneID 55174) | 0.0879 | 0.0429 | 0.238 |
| AGO2 (GeneID 27161) | 0.183 | 0.316 | 0.227 |
| CT55 (GeneID 54967) | 0.0564 | 0.128 | 0.285 |
| FOLR3 (GeneID 2352) | 0.0882 | 0.046 | 0.188 |
| SH3BP5 (GeneID 9467) | 0.0731 | 0.0781 | 0.252 |
| GDF5 (GeneID 8200) | 0.0833 | 0.0977 | 0.17 |
| ZFHX3 (GeneID 463) | 0.146 | 0.131 | 0.502 |
| MNDA (GeneID 4332) | 0.108 | 0.103 | 0.253 |
| ANXA2P3 (GeneID 305) | 0.101 | 0.215 | 0.426 |
| DLGAP5 (GeneID 9787) | 0.0595 | 0.102 | 0.292 |
| PHOX2A (GeneID 401) | 0.0619 | 0.0673 | 0.269 |
| MTMR4 (GeneID 9110) | 0.0742 | 0.0334 | 0.264 |
| CPA5 (GeneID 93979) | 0.0679 | 0.0584 | 0.328 |
| AMBP (GeneID 259) | 0.0328 | 0.208 | 0.269 |
| RIPK1 (GeneID 8737) | 0.142 | 0.242 | 0.309 |
| YAF2 (GeneID 10138) | 0.106 | 0.134 | 0.252 |
| COL2A1 (GeneID 1280) | 0.293 | 0.256 | 0.331 |
| CEP170 (GeneID 9859) | 0.0747 | 0.115 | 0.252 |
| MEF2C (GeneID 4208) | 0.117 | 0.263 | 0.288 |
| TLCD3A (GeneID 79850) | 0.111 | 0.172 | 0.296 |
| ISG15 (GeneID 9636) | 0.129 | 0.176 | 0.402 |
| DIAPH3 (GeneID 81624) | 0.0597 | 0.0722 | 0.308 |
| SIX4 (GeneID 51804) | 0.0784 | 0.705 | 0.305 |
| DAP (GeneID 1611) | 0.0975 | 0.168 | 0.339 |
| GDI1 (GeneID 2664) | 0.0916 | 0.295 | 0.262 |
| BORA (GeneID 79866) | 0.264 | 0.321 | 0.5 |
| KIAA1217 (GeneID 56243) | 0.101 | 0.134 | 0.341 |
| RAB13 (GeneID 5872) | 0.124 | 0.234 | 0.286 |
| C11orf68 (GeneID 83638) | 0.0584 | 0.12 | 0.182 |
| KIFAP3 (GeneID 22920) | 0.097 | 0.141 | 0.326 |
| COMMD3 (GeneID 23412) | 0.098 | 0.191 | 0.286 |
| NPDC1 (GeneID 56654) | 0.0964 | 0.14 | 0.468 |
| FOXO4 (GeneID 4303) | 0.172 | 0.256 | 0.468 |
| CLEC1B (GeneID 51266) | 0.053 | 0.143 | 0.26 |
| CLIP2 (GeneID 7461) | 0.092 | 0.178 | 0.31 |
| PNMT (GeneID 5409) | 0.136 | 0.133 | 0.404 |
| RBMS2 (GeneID 5939) | 0.0746 | 0.155 | 0.299 |
| TMEM79 (GeneID 84283) | 0.0973 | 0.136 | 0.347 |
| ENTREP3 (GeneID 10712) | 0.141 | 0.181 | 0.344 |
| N4BP3 (GeneID 23138) | 0.491 | 1.31 | 0.621 |
| CAPNS2 (GeneID 84290) | 0.191 | 0.484 | 0.274 |
| IDH3A (GeneID 3419) | 0.0938 | 0.035 | 0.208 |
| GET3 (GeneID 439) | 0.158 | 0.112 | 0.273 |
| MAMLD1 (GeneID 10046) | 0.0917 | 0.215 | 0.362 |
